From PMC8214149

Chains of the proteins cited; added tags and fusions are not shown.
UniProt P43588: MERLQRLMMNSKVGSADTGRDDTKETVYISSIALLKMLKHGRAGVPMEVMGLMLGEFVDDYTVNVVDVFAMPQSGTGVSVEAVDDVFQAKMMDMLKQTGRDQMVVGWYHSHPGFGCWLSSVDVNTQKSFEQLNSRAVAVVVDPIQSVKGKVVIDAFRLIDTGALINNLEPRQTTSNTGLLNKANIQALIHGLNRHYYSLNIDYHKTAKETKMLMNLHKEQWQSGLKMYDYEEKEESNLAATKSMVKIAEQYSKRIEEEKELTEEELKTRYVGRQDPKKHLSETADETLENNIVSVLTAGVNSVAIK
UniProt P38737: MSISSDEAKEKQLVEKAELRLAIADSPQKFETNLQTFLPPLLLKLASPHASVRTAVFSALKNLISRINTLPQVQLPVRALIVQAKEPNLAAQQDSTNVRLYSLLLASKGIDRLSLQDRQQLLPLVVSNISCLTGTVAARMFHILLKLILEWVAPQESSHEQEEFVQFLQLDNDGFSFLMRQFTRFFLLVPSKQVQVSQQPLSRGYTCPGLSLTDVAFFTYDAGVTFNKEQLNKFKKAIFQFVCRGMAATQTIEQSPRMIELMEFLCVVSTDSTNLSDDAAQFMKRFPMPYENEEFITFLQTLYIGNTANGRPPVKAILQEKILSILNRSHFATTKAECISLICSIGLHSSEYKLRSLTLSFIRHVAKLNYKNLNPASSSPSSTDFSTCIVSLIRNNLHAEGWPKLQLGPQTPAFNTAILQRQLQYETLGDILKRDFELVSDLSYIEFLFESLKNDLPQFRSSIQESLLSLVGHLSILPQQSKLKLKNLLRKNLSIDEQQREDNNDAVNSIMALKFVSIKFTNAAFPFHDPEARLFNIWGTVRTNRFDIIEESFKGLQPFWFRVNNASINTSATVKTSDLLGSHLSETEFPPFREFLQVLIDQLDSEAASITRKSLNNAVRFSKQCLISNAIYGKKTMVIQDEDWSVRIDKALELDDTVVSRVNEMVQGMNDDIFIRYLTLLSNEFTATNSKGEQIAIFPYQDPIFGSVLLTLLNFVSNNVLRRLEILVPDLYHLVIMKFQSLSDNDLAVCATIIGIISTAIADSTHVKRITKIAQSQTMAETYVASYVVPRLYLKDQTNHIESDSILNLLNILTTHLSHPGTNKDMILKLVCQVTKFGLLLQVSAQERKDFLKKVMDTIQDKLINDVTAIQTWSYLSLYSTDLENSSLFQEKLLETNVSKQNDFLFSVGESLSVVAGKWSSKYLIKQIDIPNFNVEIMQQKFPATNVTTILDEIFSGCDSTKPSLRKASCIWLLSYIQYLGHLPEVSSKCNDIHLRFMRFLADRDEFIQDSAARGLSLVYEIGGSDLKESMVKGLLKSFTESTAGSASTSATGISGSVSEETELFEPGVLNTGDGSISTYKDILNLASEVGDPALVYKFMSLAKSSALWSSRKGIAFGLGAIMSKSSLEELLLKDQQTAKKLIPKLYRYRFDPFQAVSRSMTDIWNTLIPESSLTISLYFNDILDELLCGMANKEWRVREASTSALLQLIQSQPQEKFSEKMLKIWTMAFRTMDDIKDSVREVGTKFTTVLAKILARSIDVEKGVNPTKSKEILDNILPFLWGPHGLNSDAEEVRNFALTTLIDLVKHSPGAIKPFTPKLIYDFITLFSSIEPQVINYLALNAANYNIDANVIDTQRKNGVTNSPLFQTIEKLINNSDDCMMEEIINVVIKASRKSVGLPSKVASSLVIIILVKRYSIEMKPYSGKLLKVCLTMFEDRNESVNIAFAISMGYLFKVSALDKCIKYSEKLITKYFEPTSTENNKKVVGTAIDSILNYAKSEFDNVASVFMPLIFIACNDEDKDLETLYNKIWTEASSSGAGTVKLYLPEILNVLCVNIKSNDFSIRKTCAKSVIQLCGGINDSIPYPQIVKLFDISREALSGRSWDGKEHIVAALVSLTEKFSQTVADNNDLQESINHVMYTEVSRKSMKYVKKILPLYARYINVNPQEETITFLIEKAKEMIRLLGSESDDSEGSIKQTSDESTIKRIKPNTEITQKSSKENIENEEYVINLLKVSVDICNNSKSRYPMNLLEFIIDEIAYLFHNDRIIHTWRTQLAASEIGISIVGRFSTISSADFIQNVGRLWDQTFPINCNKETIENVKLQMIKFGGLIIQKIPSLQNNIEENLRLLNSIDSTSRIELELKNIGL
UniProt Q12495: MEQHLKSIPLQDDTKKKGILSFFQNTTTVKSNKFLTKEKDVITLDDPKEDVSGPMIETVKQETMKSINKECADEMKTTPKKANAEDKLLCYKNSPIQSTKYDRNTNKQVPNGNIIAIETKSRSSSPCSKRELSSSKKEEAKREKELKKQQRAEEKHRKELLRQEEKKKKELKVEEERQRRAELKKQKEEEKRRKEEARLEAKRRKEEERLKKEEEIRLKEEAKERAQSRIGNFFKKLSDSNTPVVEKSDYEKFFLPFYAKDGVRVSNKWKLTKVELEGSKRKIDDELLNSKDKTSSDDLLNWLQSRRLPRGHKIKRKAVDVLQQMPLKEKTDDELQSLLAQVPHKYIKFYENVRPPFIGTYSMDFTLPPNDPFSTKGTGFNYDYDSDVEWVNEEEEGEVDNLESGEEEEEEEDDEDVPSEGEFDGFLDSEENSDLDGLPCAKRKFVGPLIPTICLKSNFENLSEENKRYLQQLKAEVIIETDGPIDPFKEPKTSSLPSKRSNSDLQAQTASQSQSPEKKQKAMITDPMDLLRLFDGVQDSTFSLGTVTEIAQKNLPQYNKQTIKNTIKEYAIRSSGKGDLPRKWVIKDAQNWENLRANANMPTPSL
UniProt P43593: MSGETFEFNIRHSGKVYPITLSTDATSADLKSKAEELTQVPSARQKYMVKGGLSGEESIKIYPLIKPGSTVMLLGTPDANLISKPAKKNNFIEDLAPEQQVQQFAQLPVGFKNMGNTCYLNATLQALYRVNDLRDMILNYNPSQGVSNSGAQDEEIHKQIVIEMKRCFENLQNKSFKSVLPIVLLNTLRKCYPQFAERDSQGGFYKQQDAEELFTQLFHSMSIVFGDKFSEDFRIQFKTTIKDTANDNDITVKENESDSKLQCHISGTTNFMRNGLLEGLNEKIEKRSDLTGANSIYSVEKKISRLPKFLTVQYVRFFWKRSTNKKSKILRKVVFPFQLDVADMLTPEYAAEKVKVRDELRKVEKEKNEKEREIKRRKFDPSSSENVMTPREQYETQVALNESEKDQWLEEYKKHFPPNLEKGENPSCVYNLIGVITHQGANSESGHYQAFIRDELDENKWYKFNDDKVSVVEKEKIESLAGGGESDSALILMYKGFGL

B1: Fzo1 (protein, UniProt P38297 1-855)
chain: MSEGKQQFKDSNKPHKDSTDQDDDAATIVPQTLTYSRNEGHFLGSNFHGVTDDRTTLFDGEEGRREDDLLPSLRSSNSKAHLISSQLSQWNYNNNRVLLKRSILKTQAFMDQLQEENNIRPIFIAANDEREKLHVLQLNIKLDGQYNTKEKNGFNIEKKALSKLFHSQIVSVTNHLNALKKRVDDVSSKVFITGDVNTGKSALCNSLLKQRLLPEDQLPCTNVFSEILEARENDGIEEVHAIPLNIAPTLKEAIDMYSIQNPKTYEIHTLKELPDLVPQNGKYALLKIYIKDDKRPASTSLLRNGTVDISLIDSPGLNMDSLQTAEVMSRQEEIDLVIFVVNAENQLTLSAKEFISLASREKKLMFFVVKKFDKIRDKQRCKELILKQIRDLSPETYKRAADFVHFVSKNGDELPHYHNENDNEDHGDRKPDDDPYSSSDPDPDFDSLEDSLRNFVLKKRSLSKLLPAKTYLSKLLSDIIMISKSNMKMYSEEEIKINEQLETLRPEILSARAKCNDLTTSVDQMAEQTITMTYNNTKEALLNALDVPLHEYPKYQGLGQIYDFIFSTEAFIANQIDESIGSSELFAKQKTDLLVKKIYEIGKNELGDDFMCERVFRSELMFRKRKHLIGKRLKVSLSITDLFAPTWKGFLSYLSWQKPVTAPLPDIEGQTNEGQIGLMKYLGLKNYPLTQYWSRPSLLFTSKIPTLTLYFLGSTKVVGNIILNGIKLSSWSSLKKLSVPVIVVGSLLGLTYLIHDLPRALPMNLSIKYKRKLQELDYIHLNAQRTSNEVRDVLRVPTREILRSCEIIMDKKQITKKELENKKESNLLSIKFFQSLYEGTVAQKLMVEEINLDID

Target: Rpn11-TAP (S. cerevisiae (yeast strain)) (UniProt P43588)
Test: affinity purification with mass spectrometry; lysate of the RPN11-TAP yeast strain bound to IgG resin 2 h at 4 °C, washed (50 mM sodium phosphate pH 7.4, 100 mM NaCl, 5 mM MgCl2, 1 mM ATP), released with TEV; proteins identified by mass spectrometry

binding, binds:
Ecm29 (from UniProt P38737 1-1868)
Rlf2 (from UniProt Q12495 1-606)
Ubp6 (from UniProt P43593 1-499) (enzyme)
B1

Results are given in words; binding and its absence hold for the method and conditions named. In cells and extracts the contact can be indirect. A yes stands for co-enrichment or nearness to the bait. Other partners may have been found.
